## Primary screen of a compound library

By UniProt entry, the sequences of proteins in these tests, tags left out. Residues count along the entry.
UniProt P9WNZ1, whole entry: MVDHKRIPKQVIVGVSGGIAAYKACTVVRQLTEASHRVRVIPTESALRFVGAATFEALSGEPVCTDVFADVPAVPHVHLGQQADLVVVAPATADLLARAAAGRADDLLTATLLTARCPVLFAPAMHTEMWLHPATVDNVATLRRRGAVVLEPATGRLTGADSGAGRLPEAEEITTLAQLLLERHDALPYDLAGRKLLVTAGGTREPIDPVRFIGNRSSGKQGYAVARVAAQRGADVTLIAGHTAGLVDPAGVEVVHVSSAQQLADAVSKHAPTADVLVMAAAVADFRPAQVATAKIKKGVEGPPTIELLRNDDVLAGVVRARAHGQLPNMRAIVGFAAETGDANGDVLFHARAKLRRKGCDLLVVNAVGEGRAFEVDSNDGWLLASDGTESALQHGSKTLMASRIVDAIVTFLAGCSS
UniProt P9WFT3, whole entry: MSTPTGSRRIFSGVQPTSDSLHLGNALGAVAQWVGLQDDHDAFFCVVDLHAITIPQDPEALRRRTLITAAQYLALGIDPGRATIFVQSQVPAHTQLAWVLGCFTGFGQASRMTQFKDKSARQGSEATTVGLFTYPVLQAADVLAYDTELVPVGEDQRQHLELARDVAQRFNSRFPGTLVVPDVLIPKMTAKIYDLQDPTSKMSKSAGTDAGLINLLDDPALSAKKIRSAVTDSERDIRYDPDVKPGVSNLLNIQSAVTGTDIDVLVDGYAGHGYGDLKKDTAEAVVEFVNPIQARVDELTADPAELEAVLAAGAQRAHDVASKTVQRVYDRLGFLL
UniProt A4I591, 1-473: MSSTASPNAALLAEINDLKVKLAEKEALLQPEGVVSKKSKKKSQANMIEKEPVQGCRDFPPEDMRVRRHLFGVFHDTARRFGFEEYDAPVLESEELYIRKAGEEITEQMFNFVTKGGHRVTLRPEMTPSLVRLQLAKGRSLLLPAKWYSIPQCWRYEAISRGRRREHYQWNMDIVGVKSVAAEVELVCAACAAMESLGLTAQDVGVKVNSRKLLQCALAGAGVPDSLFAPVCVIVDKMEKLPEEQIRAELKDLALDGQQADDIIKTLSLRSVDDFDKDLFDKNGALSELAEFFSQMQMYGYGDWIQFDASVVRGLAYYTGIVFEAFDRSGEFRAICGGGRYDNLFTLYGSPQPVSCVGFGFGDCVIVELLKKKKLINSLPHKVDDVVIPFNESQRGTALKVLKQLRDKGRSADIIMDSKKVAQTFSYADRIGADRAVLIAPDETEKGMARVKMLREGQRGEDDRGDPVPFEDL

CoaBC: 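Coenzyme A biosynthesis protein CoaBC, Mycobacterium tuberculosis (UniProt P9WNZ1). Enzyme assay of CoaBC with a phosphate dye (Biomol Green) read at 650 nm. Concentration: 30 µM. Higher reads as stronger inhibition, judged from the few compounds that gave an IC50. Most strong results did not repeat in a second test. About 67,000 compounds were tested under these conditions; 0.06% (about 40) showed 50% or more at least once.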
Toxoplasma: 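Assay of Toxoplasma gondii numbers, read through their beta-galactosidase reporter with a colour substrate. Concentration: 10 µM. Higher reads as fewer parasites (inferred from which compounds were picked for retests). Of about 67,000 compounds tested this way, about 260 (0.38%) reached 50% or more in at least one test.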
Leishmania in macrophages: 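Cell assay of Leishmania donovani living inside macrophages; the read-out is not stated. Tested at 30 µM. Higher reads as stronger inhibition (inferred: compounds with an IC50 in retests scored well above the rest). About 69,000 compounds were tested under these conditions; 1.5% (about 1,000) showed 50% or more at least once.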
MtTrpRS: 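Tryptophan-tRNA ligase, Mycobacterium tuberculosis (UniProt P9WFT3). Enzyme assay of tryptophanyl-tRNA synthetase; the read-out is not stated. Concentration: 10 µM. Direction is not recorded; retested compounds ran higher, which suggests that high means inhibition. Of about 65,000 compounds tested this way, about 64 (0.098%) reached 50% or more in at least one test.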
LiHisRS: 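Histidine-tRNA ligase, Leishmania infantum (UniProt A4I591). Enzyme assay of histidyl-tRNA synthetase; the read-out is not stated. Concentration: 30 µM. The record gives no direction; compounds that gave an IC50 in retests scored well above the rest, so higher reads as stronger inhibition. The assay is labelled LdHisRS but filed under L. infantum. Size under these conditions: about 69,000 compounds, about 410 of them at 50% or above in at least one test.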

Values are the deposited “Percent Effect”, in %. How 0% and 100% were set is not recorded. Most values in the screen are low, and negative values occur. This is an unselected part of the compounds tested. Two or more numbers in one place are separate tests of the same structure; such repeats can differ widely. A dash means the value is not listed here; it may have been measured.

Compound | CoaBC | Toxoplasma | Leishmania in macrophages | MtTrpRS | LiHisRS
CCOc1ccc(CN2CCNC(C(=O)NC3CC3)C2)cc1CO (configuration not stated) | 0.3727% | -38.86% | 27.25% | -4.776% | 12.5%
O=C(c1cccc(-c2ccc(F)cc2)c1)N1CCCC(O)(CO)CC1 (configuration not stated) | -9.307% | -8.561% | -6.272% | -1.61% | 13.11%
O=C(O)C(F)(F)F.O=C(O)C(F)(F)F.O=C1COC2(CCN(CC3CCOCC3)CC2)CN1Cc1ccccn1 | - | 3.853% | 39.25% | - | -
CN(CCc1ccccc1)C(=O)c1cccnc1OCC(F)(F)F | 1.942% | 17.93% | 35.03% | - | 1.98%
CC1(c2nccs2)CCN(C(=O)CCN2CCOCC2)CC1 | 2.663% | 8.57% | -53.99% | 0.5875% | -2.797%
CC(=O)NC1CCCN(C(=O)NCc2cccnc2)C1 (configuration not stated) | 2.611% | 2.544% | -18.4% | 0.1254% | 15.04%
Cn1cccc1C(=O)N1CCC2(CCCN(CC3CCC3)C2=O)C1 (configuration not stated) | -1.333% | 25.05% | -17.83% | 0.404% | 17.74%
CCc1ccc(C(=O)N2CCC(N(C)C(=O)OC(C)(C)C)C2)o1 (configuration not stated) | 5.242% | 2.031% | 41.37% | -4.262% | 10.53%
c1csc(CNCC2COCc3c(-c4ccsc4)nnn3C2)n1 (configuration not stated) | 1.97% | -14.78% | 40.44% | -3.189% | 18%
Cc1cccc(-c2nc(C)nn2CC(=O)N(C)C2CC2)c1 | -3.133% | 8.364% | 13.69% | -3.118% | 24.66%
CCc1n[nH]c(C2CN(CCc3cccs3)CCO2)n1 (configuration not stated) | 0% | 6.018% | 1.861% | -1.072% | 24.32%
O=C(c1cnccn1)N1CCCC(c2cccc(-n3ccnc3)n2)C1 (configuration not stated) | -1.699% | -10.89% | -5.679% & -8.593% | - | 15.94%
Cn1ncc2c(NCC3CCS(=O)(=O)C3)nc(-c3ccncc3)nc21 (configuration not stated) | -15.84% | -2.19% | -3.947% | 4.873% | 31.25%
O=C(NCc1cccnc1)c1nc2c(s1)CCCN2c1ncccn1 | 8.055% | -10.09% | 36.55% | 4.348% | 10.81%
CN(CCCc1nccn1C)c1nccc(-c2cc(C(=O)O)ccn2)n1 | 9.136% | -2.193% | 25.92% | -7.831% | 8.392%
Cc1nc(C)n(CC(C)C(=O)N2CCC(NS(C)(=O)=O)CC2)n1 (configuration not stated) | -1.535% | 3.557% | -3.124% | -2.362% | 1.639%

Some entries from above, unchanged:

Compound,CoaBC,Toxoplasma,Leishmania in macrophages,MtTrpRS,LiHisRS
CCc1n[nH]c(C2CN(CCc3cccs3)CCO2)n1 (configuration not stated),0%,6.018%,1.861%,-1.072%,24.32%
O=C(c1cccc(-c2ccc(F)cc2)c1)N1CCCC(O)(CO)CC1 (configuration not stated),-9.307%,-8.561%,-6.272%,-1.61%,13.11%

The values are deposited in ChEMBL (CHEMBL3988442, “University of Dundee, Small-Polar-MMV Screening Library” (2021)).